In patent US20210340263A1:
These are yes or no findings as the source states them, for the method shown. Some entries that bind do so weakly or less than the wild type.

What was measured:
[1] = target: T1, human Follicle Stimulating Hormone Receptor (FSHR) (human) (UniProt P23945); test: flow cytometry, K562-Fshr cells
T1 sequence: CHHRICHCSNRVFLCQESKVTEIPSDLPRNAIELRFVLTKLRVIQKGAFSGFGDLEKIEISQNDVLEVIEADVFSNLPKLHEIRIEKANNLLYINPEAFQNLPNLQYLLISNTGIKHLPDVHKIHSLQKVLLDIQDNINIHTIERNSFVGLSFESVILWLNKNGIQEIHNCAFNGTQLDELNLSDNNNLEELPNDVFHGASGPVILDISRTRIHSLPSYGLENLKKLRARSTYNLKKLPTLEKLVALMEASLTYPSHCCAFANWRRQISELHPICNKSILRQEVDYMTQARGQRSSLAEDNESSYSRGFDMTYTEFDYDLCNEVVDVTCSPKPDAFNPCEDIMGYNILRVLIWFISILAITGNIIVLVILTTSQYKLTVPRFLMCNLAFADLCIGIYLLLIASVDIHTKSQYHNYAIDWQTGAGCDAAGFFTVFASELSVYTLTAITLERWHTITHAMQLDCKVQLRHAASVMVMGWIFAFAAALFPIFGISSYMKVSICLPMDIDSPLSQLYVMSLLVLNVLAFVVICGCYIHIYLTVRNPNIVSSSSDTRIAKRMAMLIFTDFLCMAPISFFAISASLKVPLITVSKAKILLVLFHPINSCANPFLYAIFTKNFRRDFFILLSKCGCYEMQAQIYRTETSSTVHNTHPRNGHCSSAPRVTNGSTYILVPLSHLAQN

[2] = target: T1, human Follicle Stimulating Hormone Receptor (FSHR) (human); test: flow cytometry, K562-Fshr (GFP+) against K562 (GFP-), anti-human IgG PE

- binding [1]: binds
- binding [2]: binds
B1: humanized 9H11 monoclonal antibody (antibody, human IgG1, kappa, V domains shown)
VH: EVQLVESGGGLVQPGGSLRLSCSFSGFSLSTSGMGVGWIRQAPGKGLEWVAHIWWDDDKRYNPALKSRFTLSVDRSKNTLYLQMNSLRAEDTATYYCVQINYGNYRFDNWGHGTLVTVSS
VL: DIQMTQSPSSLSASVGDRVTISCRASESVDNYGISFLNWFQQKPGKAPKLLIYAASNQRSGVPSRFSGSGSGTDFTLTISSLQPEDFATYFCQQSKEVPWTFGQGTKVEIKR
